Source: PubChem BioAssay AID1259424 (University of Nebraska Medical Center, 2018)

Aim: 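Find knockdowns that reproduce the expression shifts seen after KSR1 loss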 (primary screen)
System: human HCT116 colon cancer cells
Reagents: siRNA pool against human genes, 50 nM
Measurement: 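Log2 levels of six mRNAs (branched-DNA multiplex), adjusted by two reference genes and the non-targeting median, then scored against the average KSR1 knockdown pattern as Pearson r and euclidean distance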
Scale: mean correlation with KSR1 profile and KSR1 correlation: higher = expression change more like KSR1 knockdown; mean distance from KSR1 profile: higher = expression change less like KSR1 knockdown
Shown is one part, drawn at random, of about 14,000 deposited reagents. 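Higher correlation or smaller distance means closer resemblance to KSR1 loss; control wells, including KSR1 knockdowns, recur on many plates.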 Not stated in the record: the time to read-out.

target gene	mean correlation with KSR1 profile	mean distance from KSR1 profile	KSR1 correlation, replicate 1	KSR1 correlation, replicate 2	KSR1 correlation, replicate 3
PCYT1A (GeneID 5130)	-0.656	2.07	-0.531	-0.443	-0.783
DHCR7 (GeneID 1717)	0.479	5.12	0.614	0.523	0.576
RPL32 (GeneID 6161)	0.097	1.47	0.165	-0.0474	0.638
MAPK13 (GeneID 5603)	0.439	1.67	0.562	0.315	0.108
SCAF11 (GeneID 9169)	-0.43	1.55	-0.359	-0.626	0.138
ST6GALNAC1 (GeneID 55808)	-0.191	2.64	-0.269	-0.304	-0.0503
EPAS1 (GeneID 2034)	-0.496	1.28	-0.466	-0.317	-0.883
RETSAT (GeneID 54884)	-0.537	2.76	-0.208	-0.573	-0.774
MIS12 (GeneID 79003)	-0.089	2.22	-0.212	-0.437	0.693
PLEKHA4 (GeneID 57664)	0.341	3.54	0.261	0.29	0.418
BMP10 (GeneID 27302)	-0.0405	1.84	-0.137	-0.148	-0.406
ZNF70 (GeneID 7621)	0.253	4.21	0.0847	0.549	0.0635
VAPA (GeneID 9218)	0.146	1.47	0.204	0.288	0.255
GAPDH (GeneID 2597)	-0.1	1.57	0.171	-0.144	-0.042
GNL3 (GeneID 26354)	-0.228	3.82	-0.261	-0.257	-0.192
FLJ10246 (retired record) (GeneID 55104)	0.674	1.86	0.804	0.444	0.539
GPC6 (GeneID 10082)	-0.165	2.16	-0.0479	-0.146	-0.194
SEL1L2 (GeneID 80343)	-0.566	5.02	-0.742	-0.409	-0.557
GDF15 (GeneID 9518)	0.581	1.4	0.5	0.577	0.517
UNC5B (GeneID 219699)	0.117	2.44	0.073	0.091	0.105

3 entries from above, set out differently:
{"target gene":"MIS12 (GeneID 79003)","mean correlation with KSR1 profile":-0.089,"mean distance from KSR1 profile":2.22,"KSR1 correlation, replicate 1":-0.212,"KSR1 correlation, replicate 2":-0.437,"KSR1 correlation, replicate 3":0.693}
{"target gene":"PLEKHA4 (GeneID 57664)","mean correlation with KSR1 profile":0.341,"mean distance from KSR1 profile":3.54,"KSR1 correlation, replicate 1":0.261,"KSR1 correlation, replicate 2":0.29,"KSR1 correlation, replicate 3":0.418}
{"target gene":"BMP10 (GeneID 27302)","mean correlation with KSR1 profile":-0.0405,"mean distance from KSR1 profile":1.84,"KSR1 correlation, replicate 1":-0.137,"KSR1 correlation, replicate 2":-0.148,"KSR1 correlation, replicate 3":-0.406}
